4 molecules from publication doi:10.1101/2025.08.04.668388 can be followed below.

Results are given in words; binding and its absence hold for the method and conditions named. Binding seen in cells or lysates may run through a third protein. A yes stands for co-enrichment or nearness to the bait. Other partners may have been found.

B1: PP6R3 (protein, UniProt Q922D4 1-844)
chain: MFWKFDLHSSSHIDTLLEREDVTLKELMDEEDVLQECKAQNRKLIEFLLKAECLEDLVSFIIEEPPQDMDEKIRYKYPNISCELLTSDVSQMNDRLGEDESLLMKLYSFLLNESPLNPLLASFFSKVLSILISRKPEQIVDFLKKKRDFVDLIIKHIGTSAIMDLLLRLLTCIEPPQPRQDVLNWLNEERIIQRLVEIVHPSQEEDRHSNASQSLCEIVRLSRDQMLQVQNSTEPDPLLATLEKQEIIEQLLSNIFHKEKNESAIVSAIQILLTLLETRRPTFEGHIEICPPGMSHSACSVNKSVLEAIRGRLGSFHELLLEPPKKSVMKTTWGILDPPVGNTRLNVIRLISSLLQTNTSSINGDLMELNSIGVILDMFFKYTWNNFLHTQVEICIALILASPFENAENGTITDQDSTGDNLLLKHLFQKCQLIERILEAWDTNEKKQAEGGRRHGYMGHLTRIANCIVHSTDKGPNSALVQQLIKDLPDEVRERWETFCTNSLGETNKRNTVDLAFSDYQMQQMTSNFIDQFGFNDEKFADQDDIGNVSFDRVSDINFTLNTNESGNIALFEACCKERIQQFDDGGSDEEDIWEEKHIAFTPESQRRSSSGSTDSEESTDSEEEDGAKQDLFESSSANTEDKMEVDLNEPPTWSANFDVPMETTHGAPLDSVGSDVWSTEEPMPTKETGWASFSEFTSSLSTKESLRSNSPVEMETSTESVDPLTPGAAALATQPEAPGSMAMEASSDGEEDAESTDKVTETVMNGGMKETLSLTVDAKTETAVFKSEEEKLSTSQDAACKDAEETPEPAEAKCTAPLTPSSSPEQRTDQPSMPSDPSVNGPV
B2: ANKRD28 (protein, UniProt Q505D1 1-1053)
chain: MAFLKLRDQPSLVQAIFNGDPDEVRALIFKKEDVNFQDNEKRTPLHAAAYLGDAEIIELLILSGARVNAKDSKWLTPLHRAVASCSEEAVQILLKHSADVNARDKNWQTPLHIAAANKAVKCAESLVPLLSNVNVSDRAGRTALHHAAFSGHGEMVKLLLSRGANINAFDKKDRRAIHWAAYMGHIEVVKLLVSHGAEVTCKDKKSYTPLHAAASSGMISVVKYLLDLGVDMNEPNAYGNTPLHVACYNGQDVVVNELIDCGANVNQKNEKGFTPLHFAAASTHGALCLELLVGNGADVNMKSKDGKTPLHMTALHGRFSRSQTIIQSGAVIDCEDKNGNTPLHIAARYGHELLINTLITSGADTAKRGIHGMFPLHLAALSGFSDCCRKLLSSGFDIDTPDDFGRTCLHAAAAGGNLECLNLLLNTGADFNKKDKFGRSPLHYAAANCNYQCLFALVGSGASVNDLDERGCTPLHYAATSDTDGKCLEYLLRNDANPGIRDKQGYNAVHYSAAYGHRLCLQLIASETPLDVLMETSGTDMLSDSDNRATISPLHLAAYHGHHQALEVLVQSLLDLDVRNSSGRTPLDLAAFKGHVECVDVLINQGASILVKDYVLKRTPIHAAATNGHSECLRLLIGNAEPQNAVDIQDGNGQTPLMLSVLNGHTDCVYSLLNKGANVDAKDKWGRTALHRGAVTGHEECVDALLQHGAKCLLRDSRGRTPIHLSAACGHIGVLGALLQSATSVDANPAVVDNHGYTALHWACYNGHETCVELLLEQDVFQKIDGNAFSPLHCAVINDNEGAAEMLIDSLGASIVNATDSKGRTPLHAAAFTDHVECLQLLLSQNAQVNSADSTGKTPLMMAAENGQTNTVEMLVSSASADLTLQDKSKNTALHLACGKGHETSALLILEKITDRNLINATNAALQTPLHVAARNGLTMVVQELLGKGASVLAVDENGYTPALACAPNKDVADCLALILATMMPVSSSSPLTSLTFNAINRYTNTSKTVSFEALPIMRNEASSYCSFNNIGGEQEYLYTDVDELNDSDSETY
B3: PP6C (protein, UniProt Q9CQR6 1-305)
chain: MAPLDLDKYVEIARQCKYLPENDLKRLCDYVCDLLLEESNVQPVSTPVTVCGDIHGQFYDLCELFRTGGQVPDTNYIFMGDFVDRGYYSLETFTYLLALKAKWPDRITLLRGNHESRQITQVYGFYDECQTKYGNANAWRYCTKVFDMLTVAALIDEQILCVHGGLSPDIKTLDQIRTIERNQEIPHKGAFCDLVWSDPEDVDTWAISPRGAGWLFGAKVTNEFVHINNLKLICRAHQLVHEGYKFMFDEKLVTVWSAPNYCYRCGNIASIMVFKDVNTREPKLFRAVPDSERVIPPRTTTPYFL
B4: ANKRD52 (protein, UniProt Q8BTI7 1-1076)
chain: MGILSITDQPPLVQAIFSRDVEEVRSLLSQKENINVLDQERRTPLHAAAYVGDVPILQLLLMSGANVNAKDTLWLTPLHRAAASRNEKVLGLLLAHSADVNARDKLWQTPLHVAAANRATKCAEALAPLLSSLNVADRSGRSALHHAVHSGHLETVNLLLNKGASLNVCDKKERQPLHWAAFLGHLEVLKLLVARGADLSCKDRKGYGLLHTAAASGQIEVVKHLLRMGAEIDEPNAFGNTALHIACYLGQDAVAIELVNAGANVNQPNDKGFTPLHVAAVSTNGALCLELLVNNGADVNYQSKEGKSPLHMAAIHGRFTRSQILIQNGSEIDCADKFGNTPLHVAARYGHELLISTLMTNGADTARRGIHDMFPLHLAVLFGFSDCCRKLLSSGQLYSIVSSLSNEHVLSAGFDINTPDSLGRTCLHAAASGGNVECLNLLLSSGADLRRRDKFGRTPLHYAAANGSYQCAVTLVTAGAGVNEADCKGCSPLHYAAASDTYRRAEPHTASSHDAEEDELLKESRRKEAFFCLEFLLDNGADPSLRDRQGYTAVHYAAAYGNRQNLELLLEMSFNCLEDVESTVPVSPLHLAAYNGHCEALKTLAETLVNLDVRDHKGRTALFLATERGSTECVEVLTAHGASALIKERKRKWTPLHAAAASGHTDSLHLLIDSGERADITDVMDAYGQTPLMLAIMNGHVDCVHLLLEKGSTADAADLRGRTALHRGAVTGCEDCLAALLDHDAFVLCRDFKGRTPIHLASACGHTAVLRTLLQAALSTDPLDAGVDYSGYSPMHWASYTGHEDCLELLLEHSPFSYLEGNPFTPLHCAVINNQDSTTEMLLGALGAKIVNSRDAKGRTPLHAAAFADNVSGLRMLLQHQAEVNATDHTGRTALMTAAESGQTAAVEFLLYRGKADLTVLDENKNTALHLACSKGHEKCALMILAETQDLGLINATNSALQMPLHIAARNGLASVVQALLSRGATVLAVDEEGHTPALACAPNKDVADCLALILSTMKPFPPKDAVSPFSFSLLKNCGIAAAKTVGGCGALPHGASCPYSQERHGAIGLDGCYSE

This assay concerns the target m54.5p-V5 (C-terminally V5-tagged MCMV m54.5 ORF product) (murine cytomegalovirus (MCMV, Smith, pSM3fr)). As to the kind of experiment: affinity purification with mass spectrometry.
As to B1, the binding entry is on record as “binds”. B2: the binding entry is recorded as “binds”. Consider B3, for which the binding result is reported as “binds”. Regarding B4, the binding entry is “binds”.
